Results as given in PMC7753216.
These are yes or no findings as the source states them, for the method shown. In cells and extracts the contact can be indirect. Some binding calls cover weakened binding; strength is not graded here. Blank lines part the entries; values can stand above or below the substance they belong to.

Sequences of proteins named here, by UniProt entry; tags and fusion partners are left off. A change or cut given only in a name is not applied to a line headed by its entry.
UniProt Q5VTR2: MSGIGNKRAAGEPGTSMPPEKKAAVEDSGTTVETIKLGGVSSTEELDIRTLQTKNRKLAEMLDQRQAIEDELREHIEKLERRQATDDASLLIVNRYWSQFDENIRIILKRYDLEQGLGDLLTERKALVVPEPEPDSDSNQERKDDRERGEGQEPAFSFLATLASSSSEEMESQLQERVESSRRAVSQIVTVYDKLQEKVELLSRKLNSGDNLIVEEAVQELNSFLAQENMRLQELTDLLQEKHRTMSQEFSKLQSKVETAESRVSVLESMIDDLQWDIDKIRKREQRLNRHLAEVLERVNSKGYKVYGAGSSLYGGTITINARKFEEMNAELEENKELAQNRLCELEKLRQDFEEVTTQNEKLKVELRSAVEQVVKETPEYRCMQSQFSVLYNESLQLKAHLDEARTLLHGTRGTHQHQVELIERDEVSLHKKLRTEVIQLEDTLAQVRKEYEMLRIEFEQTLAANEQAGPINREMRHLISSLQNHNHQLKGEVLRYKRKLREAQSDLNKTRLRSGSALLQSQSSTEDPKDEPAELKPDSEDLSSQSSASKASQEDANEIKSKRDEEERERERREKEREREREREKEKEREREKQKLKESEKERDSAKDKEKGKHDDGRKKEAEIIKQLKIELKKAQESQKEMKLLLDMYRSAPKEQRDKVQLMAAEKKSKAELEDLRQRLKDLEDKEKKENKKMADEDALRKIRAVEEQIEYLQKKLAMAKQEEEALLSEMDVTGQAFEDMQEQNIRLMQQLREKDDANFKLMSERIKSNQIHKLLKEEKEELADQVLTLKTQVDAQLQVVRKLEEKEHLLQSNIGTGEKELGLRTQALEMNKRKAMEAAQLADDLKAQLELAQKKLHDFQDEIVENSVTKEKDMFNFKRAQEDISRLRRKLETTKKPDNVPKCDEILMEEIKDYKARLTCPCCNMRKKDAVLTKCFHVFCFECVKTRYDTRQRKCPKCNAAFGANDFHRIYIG
UniProt Q96KQ7: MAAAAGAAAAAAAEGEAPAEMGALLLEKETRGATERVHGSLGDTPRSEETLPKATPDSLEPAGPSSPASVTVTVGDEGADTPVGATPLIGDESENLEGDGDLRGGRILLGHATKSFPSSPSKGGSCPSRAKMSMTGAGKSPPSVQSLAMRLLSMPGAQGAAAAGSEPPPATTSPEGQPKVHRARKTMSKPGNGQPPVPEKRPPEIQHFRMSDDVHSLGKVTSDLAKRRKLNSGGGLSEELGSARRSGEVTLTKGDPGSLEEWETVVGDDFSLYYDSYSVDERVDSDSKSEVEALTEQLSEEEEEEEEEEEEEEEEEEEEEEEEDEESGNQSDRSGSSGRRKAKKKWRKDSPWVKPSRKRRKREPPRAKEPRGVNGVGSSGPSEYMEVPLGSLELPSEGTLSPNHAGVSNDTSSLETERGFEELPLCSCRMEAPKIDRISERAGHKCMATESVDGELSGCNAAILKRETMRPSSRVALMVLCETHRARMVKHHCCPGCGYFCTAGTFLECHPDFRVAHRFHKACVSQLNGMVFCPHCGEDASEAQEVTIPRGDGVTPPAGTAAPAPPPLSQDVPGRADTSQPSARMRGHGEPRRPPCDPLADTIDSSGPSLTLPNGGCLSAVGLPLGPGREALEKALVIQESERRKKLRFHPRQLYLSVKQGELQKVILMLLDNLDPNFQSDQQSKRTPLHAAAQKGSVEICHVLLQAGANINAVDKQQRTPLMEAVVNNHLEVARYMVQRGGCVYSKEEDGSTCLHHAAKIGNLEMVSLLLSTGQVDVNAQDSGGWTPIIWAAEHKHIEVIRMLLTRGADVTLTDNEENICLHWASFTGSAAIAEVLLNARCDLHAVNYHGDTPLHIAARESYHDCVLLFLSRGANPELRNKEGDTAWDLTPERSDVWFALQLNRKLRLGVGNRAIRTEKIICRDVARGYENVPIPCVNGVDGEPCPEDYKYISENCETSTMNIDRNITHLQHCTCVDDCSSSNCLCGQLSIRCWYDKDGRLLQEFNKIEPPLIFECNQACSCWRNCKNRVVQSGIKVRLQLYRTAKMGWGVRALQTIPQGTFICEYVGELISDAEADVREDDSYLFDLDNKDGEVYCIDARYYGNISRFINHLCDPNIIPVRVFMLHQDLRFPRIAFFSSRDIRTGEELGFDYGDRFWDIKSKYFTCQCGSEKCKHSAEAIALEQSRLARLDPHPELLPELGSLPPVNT
UniProt O95863: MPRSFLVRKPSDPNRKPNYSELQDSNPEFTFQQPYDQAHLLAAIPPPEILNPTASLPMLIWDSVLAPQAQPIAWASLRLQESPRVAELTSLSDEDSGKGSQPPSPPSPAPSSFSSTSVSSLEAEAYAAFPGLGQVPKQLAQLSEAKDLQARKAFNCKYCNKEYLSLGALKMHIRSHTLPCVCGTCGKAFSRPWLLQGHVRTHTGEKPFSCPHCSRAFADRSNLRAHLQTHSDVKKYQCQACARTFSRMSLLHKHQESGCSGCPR

How the values were obtained:
Assay in all cases: co-IP; proteins transiently co-expressed in 293T cells; cell extracts immunoprecipitated with Flag or HA antibodies; associated protein detected by Western blotting
[1] = target: Flag-tagged RNF20 (human) (UniProt Q5VTR2)
HA-tagged RNF20 (human) = HA-tagged RNF20 (human) (UniProt Q5VTR2)
Flag-tagged G9a = Flag-tagged G9a (UniProt Q96KQ7)
HA-tagged Snail (human) = HA-tagged Snail (human) (UniProt O95863)

Substance: C-terminal region of Snail (C-Snail; amino acids 153–264) (from UniProt O95863 153-264) (domain or fragment)
binding [1]: binds

Substance: HA-tagged RNF20 (from UniProt Q5VTR2 1-975)
binding (Flag-tagged G9a): binds

Substance: Flag-tagged RNF20 (from UniProt Q5VTR2 1-975)
binding (HA-tagged Snail (human)): binds

Second part, the substance after the results:

binding (HA-tagged RNF20 (human)): binds
Substance: Flag-tagged G9a (from UniProt Q96KQ7 1-1210)

binding [1]: binds
Substance: HA-tagged Snail (from UniProt O95863 1-264)
